## Screening data, single-dose tests

Chains of the proteins cited; added tags and fusions are not shown. Residues count along the entry.
UniProt A4I591, 1-473: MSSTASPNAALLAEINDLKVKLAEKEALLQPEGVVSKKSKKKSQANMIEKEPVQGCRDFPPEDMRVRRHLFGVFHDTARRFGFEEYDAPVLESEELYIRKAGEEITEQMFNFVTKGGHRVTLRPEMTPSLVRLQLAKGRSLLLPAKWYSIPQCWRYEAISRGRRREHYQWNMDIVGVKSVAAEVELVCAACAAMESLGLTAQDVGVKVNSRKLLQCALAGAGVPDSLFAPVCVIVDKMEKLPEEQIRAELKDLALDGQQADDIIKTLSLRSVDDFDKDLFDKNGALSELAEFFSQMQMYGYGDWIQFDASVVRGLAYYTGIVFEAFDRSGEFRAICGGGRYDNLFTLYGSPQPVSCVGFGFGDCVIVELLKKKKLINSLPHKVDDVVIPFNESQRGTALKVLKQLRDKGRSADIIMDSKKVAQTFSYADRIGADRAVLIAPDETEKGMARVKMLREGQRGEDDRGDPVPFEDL
UniProt P9WFT3, whole entry: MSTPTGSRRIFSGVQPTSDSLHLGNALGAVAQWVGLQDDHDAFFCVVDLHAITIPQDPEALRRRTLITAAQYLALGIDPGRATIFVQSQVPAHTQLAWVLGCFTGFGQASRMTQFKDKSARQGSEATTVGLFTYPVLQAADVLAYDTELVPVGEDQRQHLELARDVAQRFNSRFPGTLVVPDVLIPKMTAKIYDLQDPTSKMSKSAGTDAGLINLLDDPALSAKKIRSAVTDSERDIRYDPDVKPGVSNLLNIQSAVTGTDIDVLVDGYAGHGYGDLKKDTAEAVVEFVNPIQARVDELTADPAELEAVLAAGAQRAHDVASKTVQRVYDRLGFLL
UniProt P9WNZ1, whole entry: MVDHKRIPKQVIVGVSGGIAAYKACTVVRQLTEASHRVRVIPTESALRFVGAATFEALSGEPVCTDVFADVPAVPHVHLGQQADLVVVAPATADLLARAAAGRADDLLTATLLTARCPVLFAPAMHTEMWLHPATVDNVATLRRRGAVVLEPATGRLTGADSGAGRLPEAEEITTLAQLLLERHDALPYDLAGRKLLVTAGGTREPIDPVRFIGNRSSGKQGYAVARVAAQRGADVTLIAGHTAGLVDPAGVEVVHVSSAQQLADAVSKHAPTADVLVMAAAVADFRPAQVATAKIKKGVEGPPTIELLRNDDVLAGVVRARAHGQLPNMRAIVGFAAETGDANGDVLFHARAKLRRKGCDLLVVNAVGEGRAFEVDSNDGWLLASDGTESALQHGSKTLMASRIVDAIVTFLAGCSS

Measurements from “University of Dundee, Small-Polar-MMV Screening Library” (2021), ChEMBL document CHEMBL3988442.

The filed quantity is “Percent Effect” (%).
The controls that fix the scale are not given in the record; negative values are as filed.
Compounds were drawn at random from those tested, without regard to their results.

LiHisRS: 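Enzyme assay of histidyl-tRNA synthetase; the read-out is not stated. Target: Histidine-tRNA ligase, Leishmania infantum (UniProt A4I591). Compounds at 30 µM. Higher reads as stronger inhibition (inferred: compounds with an IC50 in retests scored well above the rest). The assay is labelled LdHisRS but filed under L. infantum. About 69,000 compounds were tested under these conditions; 0.6% (about 410) showed 50% or more at least once.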
MtTrpRS: 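Tryptophan-tRNA ligase, Mycobacterium tuberculosis (UniProt P9WFT3). Enzyme assay of tryptophanyl-tRNA synthetase; the read-out is not stated. Tested at 10 µM. Direction is not recorded; retested compounds ran higher, which suggests that high means inhibition. About 65,000 compounds were tested under these conditions; 0.098% (about 64) showed 50% or more at least once.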
Toxoplasma: 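Assay of Toxoplasma gondii numbers, read through their beta-galactosidase reporter with a colour substrate. Tested at 10 µM. The record gives no direction; the compounds picked for IC50 retests had high values, so higher reads as fewer parasites. Size under these conditions: about 67,000 compounds, about 260 of them at 50% or above in at least one test.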
CoaBC: 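Coenzyme A biosynthesis protein CoaBC, Mycobacterium tuberculosis (UniProt P9WNZ1). Enzyme assay of CoaBC with a phosphate dye (Biomol Green) read at 650 nm. Concentration: 30 µM. Direction is inferred from only a few compounds that gave an IC50; most scored high, so higher reads as stronger inhibition. Most strong results did not repeat in a second test. About 67,000 compounds were tested under these conditions; 0.06% (about 40) showed 50% or more at least once.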

* Cc1nccn1CC1CCCN1S(=O)(=O)Cc1ccon1 (configuration not stated) | LiHisRS: 21.35%; MtTrpRS: 0.5508%; CoaBC: 3.856%
* CN(Cc1ccc(F)cc1)CC1(O)CCCN(CC(C)(C)C)C1=O (configuration not stated) | LiHisRS: 14.42%; MtTrpRS: -2.464%; Toxoplasma: -0.6397%; CoaBC: 0.4219%
* CC1(C)COCCN1C(=O)CCc1nc(-c2ccncc2)no1 | LiHisRS: -0.8929%; MtTrpRS: 1.144%; Toxoplasma: -6.163%; CoaBC: -0.3968%
* Cc1nn(C)c(C)c1-c1ccc(=O)n(C(C)C(=O)NC2CCCC2)n1 (configuration not stated) | LiHisRS: 1.399%; MtTrpRS: -0.3264%; Toxoplasma: 12.08%; CoaBC: -17.43%
* O=C(CN1CCCC1Cn1cncn1)Nc1ccc(Cl)cn1 (configuration not stated) | LiHisRS: 11.11%; MtTrpRS: -2.292%; Toxoplasma: 12.45%; CoaBC: -2.041%
* [H][C@]1([C@H](O)c2ccc(NC(=O)COC)cc2)COCC(=O)N1CC | Toxoplasma: 3.594%
* CCc1nnc2n1CCN(C(=O)c1cc3ccc(C)cc3[nH]1)C2 | LiHisRS: 10.43%; MtTrpRS: 2.434%; Toxoplasma: 0.2612%; CoaBC: 2.194%
* Cc1cn(Cc2ccc(F)cc2)nc1N | LiHisRS: 16.49%; Toxoplasma: 2.15%; CoaBC: 0.8589%
* Cc1cc(C(=O)NCc2ccc(F)cc2)c2c(C3CCCN3)noc2n1 (configuration not stated) | LiHisRS: 15.17%; MtTrpRS: -2.334%; Toxoplasma: -0.6823%; CoaBC: 4.737%
* CN(C)c1cc(C2CCCN2Cc2ccccc2OCC(=O)O)ccn1 (configuration not stated) | LiHisRS: 4%; Toxoplasma: 0.5357%; CoaBC: -0.1239%
* O=C(c1ccncc1)N1CCOC2(COCCN(c3cncnc3)C2)C1 (configuration not stated) | LiHisRS: 15.79%; MtTrpRS: -4.328%; CoaBC: 2.24%
* COc1ccc(C(=O)NC2CCN(c3ncccn3)CC2)cc1F | LiHisRS: 6.667%; MtTrpRS: -1.67%; Toxoplasma: -32.5%; CoaBC: 1.946%
* Cn1cccc1C(=O)NCc1cn2c(n1)CN(Cc1ccccn1)CC2.O=C(O)C(F)(F)F.O=C(O)C(F)(F)F | Toxoplasma: 0.8601%
* c1cnc(N2C[C@H]3CN(CC4CCOC4)C[C@H]3C2)nc1 (some centres not stated) | LiHisRS: 6.195%; MtTrpRS: -0.5863%; CoaBC: 4.459%
* Cc1cc(-c2cnc(N3CCSCC3)nc2-c2ccc(C)s2)on1 | LiHisRS: 1.449%; Toxoplasma: 1.35%; CoaBC: 1.214%
* CC(C)(C)c1nnc(CN2CCCC(c3cc(C(N)=O)[nH]n3)C2)o1 (configuration not stated) | LiHisRS: -2.381%; MtTrpRS: -2.269%; Toxoplasma: 0.7467%; CoaBC: -1.305%
* CN(C)c1ncc(CN2CCC(O)(c3ccccc3F)CC2)cn1.O=C(O)CC(O)(CC(=O)O)C(=O)O | Toxoplasma: -2.584%
* CCCN1Cc2cc(Br)ccc2OCC1=O | LiHisRS: 3.39%; MtTrpRS: -4.338%; Toxoplasma: -15.17%; CoaBC: -1.631%
* O=C(O)C(F)(F)F.[H][C@@]12OCCN(Cc3ccoc3)[C@@]1([H])CC[C@H]2OCC | Toxoplasma: -0.2909%
* O=C(O)C(F)(F)F.O=C(O)C(F)(F)F.[H][C@]12CC(=O)N(Cc3cccc(C)n3)[C@@]1([H])CCN2Cc1ccc(F)cc1 | Toxoplasma: 7.368%
* COC(=O)NCC(=O)N1CCCC1c1nc(-c2ccccc2F)c[nH]1 (configuration not stated) | LiHisRS: 0%; MtTrpRS: -1.104%; Toxoplasma: 12.82%; CoaBC: 4.497%
* CCNc1ncc(CN2C[C@H]3CC[C@@H]2CN(C(=O)C2CCC2)C3)cn1 | LiHisRS: 7.071%; MtTrpRS: -3.636%; CoaBC: 0.4831%
* CN1CC2(CCCN(C(=O)c3cnc4ccc(F)cc4c3O)C2)OC1=O (configuration not stated) | LiHisRS: 15.15%; MtTrpRS: -0.4036%; Toxoplasma: -5.254%; CoaBC: -9.073%
* Nc1cc(O)nc(CCNC(=O)CC[C@@H]2CCCN3CCCC[C@H]23)n1 | LiHisRS: 3.226%; MtTrpRS: -5.131%; CoaBC: -3.909%
* CCN(CC)C(=O)CSc1nc2nc(C)ccc2o1 | LiHisRS: 10.53%; MtTrpRS: 3.613%; Toxoplasma: 13.78%; CoaBC: -9.114%
* O=C(Nc1ccncc1)N(CCO)Cc1ccsc1 | LiHisRS: 14.29%; MtTrpRS: -0.6905%; Toxoplasma: -2.064%; CoaBC: 8.238%
* CCN(Cc1ccoc1)C(=O)NC1CCN(CC=C(C)C)CC1 | LiHisRS: 20%; MtTrpRS: -1.135%; Toxoplasma: -2.775%
* CC(Nc1cccc(CN2CCOC2=O)c1)C(=O)Nc1ccccc1 (configuration not stated) | LiHisRS: 8.333%; MtTrpRS: -11.5%; Toxoplasma: -1.487%; CoaBC: 4.474%
* CSc1ncccc1C(=O)N1C[C@H]2CC[C@@H]1CN(c1cnccn1)C2 | LiHisRS: 17.92%; MtTrpRS: -1.906%; CoaBC: 1.364%
* CNC(=O)[C@@H]1CC[C@@H]2[C@@H](CCN2Cc2cn(C)c3ccccc23)O1 | LiHisRS: 13.16%; MtTrpRS: -3.246%; CoaBC: -12.83%
* Cc1ccccc1SC1CCN(C(=O)[C@H]2[C@@H]3CNC[C@@H]32)CC1 | LiHisRS: 6.452%; MtTrpRS: -2.716%; CoaBC: -24.07%

2 of the entries, repeated:

{"smiles": "O=C(c1ccncc1)N1CCOC2(COCCN(c3cncnc3)C2)C1", "stereo": "configuration not stated", "LiHisRS": 15.79, "MtTrpRS": -4.328, "CoaBC": 2.24}
{"smiles": "Cn1cccc1C(=O)NCc1cn2c(n1)CN(Cc1ccccn1)CC2.O=C(O)C(F)(F)F.O=C(O)C(F)(F)F", "Toxoplasma": 0.8601}